Source: article doi:10.1101/2022.03.07.483153
These are yes or no findings as the source states them, for the method shown. Binding seen in cells or lysates may run through a third protein. Some results given as binding are weak or reduced against the parent protein; the word gives no strength. Tags and fused reporters may be left off the sequences shown.

T1: RNP-6 (C. elegans ortholog of PUF60), HA tagged at the endogenous locus (C. elegans) (UniProt Q9N3S4)
T1 sequence: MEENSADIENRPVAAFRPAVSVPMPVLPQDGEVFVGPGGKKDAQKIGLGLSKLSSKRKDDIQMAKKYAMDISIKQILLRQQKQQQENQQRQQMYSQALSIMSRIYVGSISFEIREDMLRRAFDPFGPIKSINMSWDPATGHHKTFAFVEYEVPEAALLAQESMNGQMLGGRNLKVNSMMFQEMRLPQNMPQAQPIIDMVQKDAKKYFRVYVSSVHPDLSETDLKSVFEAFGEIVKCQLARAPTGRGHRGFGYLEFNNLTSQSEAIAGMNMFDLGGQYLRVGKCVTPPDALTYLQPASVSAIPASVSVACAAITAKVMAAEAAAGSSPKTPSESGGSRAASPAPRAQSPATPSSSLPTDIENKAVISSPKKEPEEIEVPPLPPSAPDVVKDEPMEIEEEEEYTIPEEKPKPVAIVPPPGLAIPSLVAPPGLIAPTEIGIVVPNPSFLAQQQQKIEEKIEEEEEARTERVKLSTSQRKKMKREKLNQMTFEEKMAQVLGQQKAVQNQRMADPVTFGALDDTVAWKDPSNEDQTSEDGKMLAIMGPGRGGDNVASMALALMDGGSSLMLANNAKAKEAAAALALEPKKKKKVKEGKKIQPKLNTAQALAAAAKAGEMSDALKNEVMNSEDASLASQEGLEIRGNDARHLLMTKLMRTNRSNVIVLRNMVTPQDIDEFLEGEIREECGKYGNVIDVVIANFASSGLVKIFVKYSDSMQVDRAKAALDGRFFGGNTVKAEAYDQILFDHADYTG

T2: RBM-39 (C. elegans ortholog of RBM39), mKate2 tagged at the endogenous locus (C. elegans) (UniProt Q9N368)
T2 sequence: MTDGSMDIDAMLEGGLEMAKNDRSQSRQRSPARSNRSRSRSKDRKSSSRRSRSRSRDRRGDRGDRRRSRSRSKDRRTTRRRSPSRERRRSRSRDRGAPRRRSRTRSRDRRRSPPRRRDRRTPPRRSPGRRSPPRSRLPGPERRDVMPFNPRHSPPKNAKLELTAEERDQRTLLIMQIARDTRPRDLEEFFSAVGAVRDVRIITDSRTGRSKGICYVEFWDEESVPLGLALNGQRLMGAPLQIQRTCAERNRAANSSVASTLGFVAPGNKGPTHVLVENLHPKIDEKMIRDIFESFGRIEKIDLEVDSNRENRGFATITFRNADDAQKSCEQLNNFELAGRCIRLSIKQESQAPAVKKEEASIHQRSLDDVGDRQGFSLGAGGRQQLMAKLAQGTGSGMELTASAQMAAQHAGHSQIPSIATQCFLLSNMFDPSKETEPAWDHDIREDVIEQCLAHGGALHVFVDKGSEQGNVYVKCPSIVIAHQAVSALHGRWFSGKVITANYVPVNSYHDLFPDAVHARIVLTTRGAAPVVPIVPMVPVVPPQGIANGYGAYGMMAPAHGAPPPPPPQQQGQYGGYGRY


Experiments:
[1] = target: T1, RNP-6 (C. elegans ortholog of PUF60), HA tagged at the endogenous locus (C. elegans); test: co-IP
[2] = target: T2, RBM-39 (C. elegans ortholog of RBM39), mKate2 tagged at the endogenous locus (C. elegans); test: co-IP

| Binder | binding [1] | binding [2] |
| --- | --- | --- |
| RBM-39 (C. elegans ortholog of RBM39), mKate2 tagged at the endogenous locus (protein, UniProt Q9N368 1-580) MTDGSMDIDAMLEGGLEMAKNDRSQSRQRSPARSNRSRSRSKDRKSSSRRSRSRSRDRRGDRGDRRRSRSRSKDRRTTRRRSPSRERRRSRSRDRGAPRRRSRTRSRDRRRSPPRRRDRRTPPRRSPGRRSPPRSRLPGPERRDVMPFNPRHSPPKNAKLELTAEERDQRTLLIMQIARDTRPRDLEEFFSAVGAVRDVRIITDSRTGRSKGICYVEFWDEESVPLGLALNGQRLMGAPLQIQRTCAERNRAANSSVASTLGFVAPGNKGPTHVLVENLHPKIDEKMIRDIFESFGRIEKIDLEVDSNRENRGFATITFRNADDAQKSCEQLNNFELAGRCIRLSIKQESQAPAVKKEEASIHQRSLDDVGDRQGFSLGAGGRQQLMAKLAQGTGSGMELTASAQMAAQHAGHSQIPSIATQCFLLSNMFDPSKETEPAWDHDIREDVIEQCLAHGGALHVFVDKGSEQGNVYVKCPSIVIAHQAVSALHGRWFSGKVITANYVPVNSYHDLFPDAVHARIVLTTRGAAPVVPIVPMVPVVPPQGIANGYGAYGMMAPAHGAPPPPPPQQQGQYGGYGRY | binds |  |
| RNP-6 (C. elegans ortholog of PUF60), HA tagged at the endogenous locus (protein, UniProt Q9N3S4 1-749) MEENSADIENRPVAAFRPAVSVPMPVLPQDGEVFVGPGGKKDAQKIGLGLSKLSSKRKDDIQMAKKYAMDISIKQILLRQQKQQQENQQRQQMYSQALSIMSRIYVGSISFEIREDMLRRAFDPFGPIKSINMSWDPATGHHKTFAFVEYEVPEAALLAQESMNGQMLGGRNLKVNSMMFQEMRLPQNMPQAQPIIDMVQKDAKKYFRVYVSSVHPDLSETDLKSVFEAFGEIVKCQLARAPTGRGHRGFGYLEFNNLTSQSEAIAGMNMFDLGGQYLRVGKCVTPPDALTYLQPASVSAIPASVSVACAAITAKVMAAEAAAGSSPKTPSESGGSRAASPAPRAQSPATPSSSLPTDIENKAVISSPKKEPEEIEVPPLPPSAPDVVKDEPMEIEEEEEYTIPEEKPKPVAIVPPPGLAIPSLVAPPGLIAPTEIGIVVPNPSFLAQQQQKIEEKIEEEEEARTERVKLSTSQRKKMKREKLNQMTFEEKMAQVLGQQKAVQNQRMADPVTFGALDDTVAWKDPSNEDQTSEDGKMLAIMGPGRGGDNVASMALALMDGGSSLMLANNAKAKEAAAALALEPKKKKKVKEGKKIQPKLNTAQALAAAAKAGEMSDALKNEVMNSEDASLASQEGLEIRGNDARHLLMTKLMRTNRSNVIVLRNMVTPQDIDEFLEGEIREECGKYGNVIDVVIANFASSGLVKIFVKYSDSMQVDRAKAALDGRFFGGNTVKAEAYDQILFDHADYTG |  | binds |
